According to the supplement of paper PMC10849652:
The list shows a part of the results.

Amino acid sequences for entries named in this document (tags omitted). A change or cut given only in a name is not applied to a line headed by its entry.
UniProt Q6NUQ4: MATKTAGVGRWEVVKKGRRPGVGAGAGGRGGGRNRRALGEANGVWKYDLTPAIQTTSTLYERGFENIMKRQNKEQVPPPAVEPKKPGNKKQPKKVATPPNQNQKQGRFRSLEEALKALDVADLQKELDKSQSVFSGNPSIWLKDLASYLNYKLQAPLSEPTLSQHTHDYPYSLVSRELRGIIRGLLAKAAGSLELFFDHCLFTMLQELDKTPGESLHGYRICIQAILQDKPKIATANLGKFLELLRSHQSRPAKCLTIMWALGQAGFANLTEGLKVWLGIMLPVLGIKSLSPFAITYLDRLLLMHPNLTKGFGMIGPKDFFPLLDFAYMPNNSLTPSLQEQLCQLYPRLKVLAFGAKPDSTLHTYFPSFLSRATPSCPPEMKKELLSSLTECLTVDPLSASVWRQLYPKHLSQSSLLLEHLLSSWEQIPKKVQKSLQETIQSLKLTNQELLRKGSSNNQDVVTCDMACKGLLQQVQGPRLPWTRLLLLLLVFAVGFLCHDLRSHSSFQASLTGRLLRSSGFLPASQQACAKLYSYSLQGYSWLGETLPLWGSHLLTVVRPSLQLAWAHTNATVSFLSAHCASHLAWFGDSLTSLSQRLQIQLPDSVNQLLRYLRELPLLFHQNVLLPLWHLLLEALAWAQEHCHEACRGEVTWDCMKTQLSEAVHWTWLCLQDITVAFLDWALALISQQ
UniProt A0PJW6: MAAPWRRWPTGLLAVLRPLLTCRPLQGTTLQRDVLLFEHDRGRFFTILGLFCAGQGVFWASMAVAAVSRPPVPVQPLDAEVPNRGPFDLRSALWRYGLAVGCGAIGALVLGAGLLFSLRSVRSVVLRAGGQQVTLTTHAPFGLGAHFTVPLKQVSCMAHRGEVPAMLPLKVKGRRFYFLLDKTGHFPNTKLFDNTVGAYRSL
UniProt P82094: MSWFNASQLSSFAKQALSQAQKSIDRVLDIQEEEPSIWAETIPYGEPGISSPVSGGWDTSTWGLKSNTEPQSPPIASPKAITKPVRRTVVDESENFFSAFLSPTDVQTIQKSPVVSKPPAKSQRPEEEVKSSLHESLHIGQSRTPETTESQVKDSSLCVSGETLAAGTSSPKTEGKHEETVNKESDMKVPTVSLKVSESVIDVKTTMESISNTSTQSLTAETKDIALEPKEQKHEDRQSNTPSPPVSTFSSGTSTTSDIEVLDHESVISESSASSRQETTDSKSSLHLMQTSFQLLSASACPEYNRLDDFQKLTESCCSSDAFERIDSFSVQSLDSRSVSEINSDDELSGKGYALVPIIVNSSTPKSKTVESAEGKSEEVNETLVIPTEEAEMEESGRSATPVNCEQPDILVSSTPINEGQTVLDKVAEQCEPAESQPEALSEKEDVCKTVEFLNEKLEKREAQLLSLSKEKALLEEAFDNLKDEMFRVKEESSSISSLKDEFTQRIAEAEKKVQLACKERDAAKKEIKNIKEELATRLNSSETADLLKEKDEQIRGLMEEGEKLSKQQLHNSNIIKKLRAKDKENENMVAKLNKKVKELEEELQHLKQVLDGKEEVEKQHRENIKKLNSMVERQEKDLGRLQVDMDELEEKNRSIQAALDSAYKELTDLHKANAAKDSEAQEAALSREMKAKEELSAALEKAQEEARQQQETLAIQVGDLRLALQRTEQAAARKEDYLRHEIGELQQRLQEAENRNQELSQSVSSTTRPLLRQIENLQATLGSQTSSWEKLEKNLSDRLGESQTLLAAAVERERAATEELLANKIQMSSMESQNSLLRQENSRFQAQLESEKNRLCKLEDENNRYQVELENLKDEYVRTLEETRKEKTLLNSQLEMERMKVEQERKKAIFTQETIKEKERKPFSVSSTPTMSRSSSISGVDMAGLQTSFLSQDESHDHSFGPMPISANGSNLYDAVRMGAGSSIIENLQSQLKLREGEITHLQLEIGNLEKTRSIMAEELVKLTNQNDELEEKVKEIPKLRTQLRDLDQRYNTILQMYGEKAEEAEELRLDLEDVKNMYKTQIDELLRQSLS
UniProt O60784, whole entry, looked up: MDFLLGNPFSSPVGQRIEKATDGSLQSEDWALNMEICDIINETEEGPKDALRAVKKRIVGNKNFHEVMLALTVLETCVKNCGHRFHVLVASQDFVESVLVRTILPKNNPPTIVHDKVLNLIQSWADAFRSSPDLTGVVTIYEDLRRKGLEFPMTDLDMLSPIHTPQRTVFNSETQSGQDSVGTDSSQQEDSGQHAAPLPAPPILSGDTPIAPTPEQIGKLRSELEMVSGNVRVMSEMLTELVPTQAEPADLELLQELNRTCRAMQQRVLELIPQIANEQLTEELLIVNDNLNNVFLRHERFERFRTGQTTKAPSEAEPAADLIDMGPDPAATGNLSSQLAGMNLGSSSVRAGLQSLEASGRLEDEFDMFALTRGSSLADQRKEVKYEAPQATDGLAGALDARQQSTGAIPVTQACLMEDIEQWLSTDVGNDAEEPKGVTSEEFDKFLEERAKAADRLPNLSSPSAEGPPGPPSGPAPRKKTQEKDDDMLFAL
UniProt Q8N4H5: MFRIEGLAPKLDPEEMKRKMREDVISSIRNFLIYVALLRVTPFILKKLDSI
UniProt O95379: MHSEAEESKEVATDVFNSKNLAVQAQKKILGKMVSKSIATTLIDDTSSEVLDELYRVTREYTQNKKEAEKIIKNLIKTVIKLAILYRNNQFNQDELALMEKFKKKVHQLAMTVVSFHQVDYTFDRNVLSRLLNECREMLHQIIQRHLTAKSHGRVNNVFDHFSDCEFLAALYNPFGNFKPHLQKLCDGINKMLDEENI
UniProt Q9NZR1: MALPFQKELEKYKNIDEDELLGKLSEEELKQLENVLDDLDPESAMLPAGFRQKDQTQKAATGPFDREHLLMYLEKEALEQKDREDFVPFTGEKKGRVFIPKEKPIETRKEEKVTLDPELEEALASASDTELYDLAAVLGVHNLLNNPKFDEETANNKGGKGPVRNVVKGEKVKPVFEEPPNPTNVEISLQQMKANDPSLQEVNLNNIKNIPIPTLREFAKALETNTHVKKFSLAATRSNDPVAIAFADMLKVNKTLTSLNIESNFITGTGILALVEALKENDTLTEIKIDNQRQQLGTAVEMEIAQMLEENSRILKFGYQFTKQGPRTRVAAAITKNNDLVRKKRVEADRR
UniProt Q9NVV0: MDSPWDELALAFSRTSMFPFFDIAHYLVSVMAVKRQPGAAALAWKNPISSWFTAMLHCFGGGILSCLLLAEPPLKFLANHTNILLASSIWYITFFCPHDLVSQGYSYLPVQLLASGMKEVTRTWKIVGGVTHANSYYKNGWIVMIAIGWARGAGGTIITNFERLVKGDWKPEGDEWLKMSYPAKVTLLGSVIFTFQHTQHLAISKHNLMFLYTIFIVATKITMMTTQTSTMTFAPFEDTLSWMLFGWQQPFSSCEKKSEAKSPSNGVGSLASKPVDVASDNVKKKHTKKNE
UniProt P51580: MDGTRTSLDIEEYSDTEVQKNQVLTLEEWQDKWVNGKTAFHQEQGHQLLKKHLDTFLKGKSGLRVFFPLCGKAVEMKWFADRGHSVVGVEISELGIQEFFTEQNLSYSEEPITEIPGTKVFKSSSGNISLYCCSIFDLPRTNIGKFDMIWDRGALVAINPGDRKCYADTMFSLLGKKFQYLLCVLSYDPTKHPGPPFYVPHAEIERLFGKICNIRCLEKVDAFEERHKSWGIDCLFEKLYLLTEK
UniProt Q53FA7: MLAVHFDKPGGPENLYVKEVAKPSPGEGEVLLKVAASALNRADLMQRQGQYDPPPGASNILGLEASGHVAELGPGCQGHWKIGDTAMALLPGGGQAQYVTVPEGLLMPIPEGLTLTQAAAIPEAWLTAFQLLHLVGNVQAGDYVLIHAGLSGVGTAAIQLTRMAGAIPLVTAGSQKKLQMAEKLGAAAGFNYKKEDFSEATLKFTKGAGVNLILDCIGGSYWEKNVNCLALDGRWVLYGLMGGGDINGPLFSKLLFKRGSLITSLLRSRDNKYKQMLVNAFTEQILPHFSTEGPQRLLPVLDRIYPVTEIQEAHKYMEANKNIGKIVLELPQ
UniProt Q9H496: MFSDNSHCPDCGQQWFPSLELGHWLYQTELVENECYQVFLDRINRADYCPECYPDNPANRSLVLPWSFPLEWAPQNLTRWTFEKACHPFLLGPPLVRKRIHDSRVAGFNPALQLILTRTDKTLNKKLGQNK
UniProt O14773: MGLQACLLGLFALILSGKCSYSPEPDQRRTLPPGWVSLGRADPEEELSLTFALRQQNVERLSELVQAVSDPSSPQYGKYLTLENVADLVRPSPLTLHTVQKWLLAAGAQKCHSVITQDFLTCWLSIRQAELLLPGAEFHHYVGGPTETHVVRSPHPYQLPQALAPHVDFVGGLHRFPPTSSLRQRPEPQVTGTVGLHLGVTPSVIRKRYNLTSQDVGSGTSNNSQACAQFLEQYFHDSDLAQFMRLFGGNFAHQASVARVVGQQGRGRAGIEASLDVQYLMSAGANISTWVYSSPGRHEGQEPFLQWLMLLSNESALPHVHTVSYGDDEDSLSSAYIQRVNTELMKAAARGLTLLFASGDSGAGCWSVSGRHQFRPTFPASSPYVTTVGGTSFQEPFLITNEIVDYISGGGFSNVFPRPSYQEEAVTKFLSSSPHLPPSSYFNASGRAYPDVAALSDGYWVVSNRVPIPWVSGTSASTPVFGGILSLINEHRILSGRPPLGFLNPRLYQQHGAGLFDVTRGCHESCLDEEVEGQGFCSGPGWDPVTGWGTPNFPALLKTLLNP
UniProt Q8NFQ8: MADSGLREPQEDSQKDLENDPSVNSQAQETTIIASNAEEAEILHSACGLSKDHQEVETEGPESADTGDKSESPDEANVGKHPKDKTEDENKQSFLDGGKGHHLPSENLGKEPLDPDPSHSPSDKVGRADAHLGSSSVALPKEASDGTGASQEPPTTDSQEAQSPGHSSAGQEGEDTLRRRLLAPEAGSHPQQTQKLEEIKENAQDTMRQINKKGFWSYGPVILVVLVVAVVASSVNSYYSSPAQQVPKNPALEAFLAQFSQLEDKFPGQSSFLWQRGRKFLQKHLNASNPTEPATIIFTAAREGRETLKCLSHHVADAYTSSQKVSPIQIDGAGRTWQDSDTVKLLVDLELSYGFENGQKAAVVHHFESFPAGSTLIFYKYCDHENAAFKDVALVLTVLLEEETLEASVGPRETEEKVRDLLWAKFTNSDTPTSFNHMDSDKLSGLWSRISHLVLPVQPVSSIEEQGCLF
UniProt P29144: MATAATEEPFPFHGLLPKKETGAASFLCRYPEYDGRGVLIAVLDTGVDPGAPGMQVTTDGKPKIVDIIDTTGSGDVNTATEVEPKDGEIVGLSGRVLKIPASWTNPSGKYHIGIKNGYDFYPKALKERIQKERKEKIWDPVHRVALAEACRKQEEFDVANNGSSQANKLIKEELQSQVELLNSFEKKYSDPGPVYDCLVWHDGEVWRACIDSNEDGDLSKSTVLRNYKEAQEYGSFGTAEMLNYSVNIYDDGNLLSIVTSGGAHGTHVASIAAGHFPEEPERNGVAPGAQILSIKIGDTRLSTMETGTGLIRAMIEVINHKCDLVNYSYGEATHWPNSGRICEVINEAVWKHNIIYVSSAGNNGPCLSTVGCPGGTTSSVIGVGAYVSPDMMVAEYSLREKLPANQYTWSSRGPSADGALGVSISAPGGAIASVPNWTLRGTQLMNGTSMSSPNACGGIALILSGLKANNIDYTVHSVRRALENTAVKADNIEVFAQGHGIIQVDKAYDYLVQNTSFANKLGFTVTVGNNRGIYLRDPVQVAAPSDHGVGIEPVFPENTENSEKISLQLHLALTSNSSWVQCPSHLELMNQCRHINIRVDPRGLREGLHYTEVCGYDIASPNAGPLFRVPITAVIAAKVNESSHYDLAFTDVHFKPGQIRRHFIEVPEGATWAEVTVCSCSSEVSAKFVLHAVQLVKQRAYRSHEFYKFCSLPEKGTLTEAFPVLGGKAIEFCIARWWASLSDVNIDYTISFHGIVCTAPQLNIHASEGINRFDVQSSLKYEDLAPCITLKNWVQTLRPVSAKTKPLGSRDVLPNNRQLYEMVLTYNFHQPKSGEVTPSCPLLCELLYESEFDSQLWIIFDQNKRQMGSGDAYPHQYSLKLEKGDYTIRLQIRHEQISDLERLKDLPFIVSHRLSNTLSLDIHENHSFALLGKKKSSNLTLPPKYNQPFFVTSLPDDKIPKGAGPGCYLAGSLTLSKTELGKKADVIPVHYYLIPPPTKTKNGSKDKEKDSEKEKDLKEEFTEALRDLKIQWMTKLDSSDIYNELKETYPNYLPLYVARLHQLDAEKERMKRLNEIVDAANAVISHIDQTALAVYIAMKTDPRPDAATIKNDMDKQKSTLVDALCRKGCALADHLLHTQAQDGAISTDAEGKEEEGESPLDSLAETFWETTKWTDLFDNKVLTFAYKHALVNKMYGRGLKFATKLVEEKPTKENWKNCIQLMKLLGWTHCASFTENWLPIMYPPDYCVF
UniProt Q9NQ34: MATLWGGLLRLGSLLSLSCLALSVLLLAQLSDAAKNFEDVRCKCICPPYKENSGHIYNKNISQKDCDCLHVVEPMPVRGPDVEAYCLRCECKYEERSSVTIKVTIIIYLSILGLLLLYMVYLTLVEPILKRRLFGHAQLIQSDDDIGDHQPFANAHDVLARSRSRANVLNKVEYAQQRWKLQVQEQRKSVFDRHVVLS

Columns and labels:
Assay in all cases: log2 fold change, soluble protein after heating vs DMSO (PISA); higher = thermal stabilisation; K562 lysate, 10 uM; active = over 0.2 and 3.5 SD of the protein, either way, in both replicates (recomputed)
nilotinib = compound: Cc1cn(-c2cc(NC(=O)c3ccc(C)c(Nc4nccc(-c5cccnc5)n4)c3)cc(C(F)(F)F)c2)cn1 [nilotinib]
Outline: (§1)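 The values are log-two fold changes in thermal stability compared with solvent controls and come from duplicates. They were obtained by TMTpro 16plex LC-MS/MS, with channel sums equalised, on the supernatant after 21,000xg for 90 min. That supernatant came from crude K562 extract at 1 mg/mL protein treated with 10 μM compound for 30 min, heated for 3 min across 48°C-58°C, pooled and brought to 0.5% NP-40 at 4°C.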

[1] = compound: Cc1nc(Nc2n[nH]c3c2CN(C(=O)N[C@H](CN(C)C)c2ccccc2)C3(C)C)c2sccc2n1
Outline: as §1

dasatinib = compound: Cc1nc(Nc2ncc(C(=O)Nc3c(C)cccc3Cl)s2)cc(N2CCN(CCO)CC2)n1 [dasatinib]
Outline: as §1

[2] = compound: Cc1ncc(-c2ccnc(Nc3ccc(S(C)(=O)=O)cc3)n2)n1C(C)C
Outline: as §1

[3] = compound: Cn1cc(-c2ccc3c(c2)CCN3C(=O)Cc2cccc(C(F)(F)F)c2)c2c(N)ncnc21
Outline: as §1

quisinostat = compound: Cn1cc(CNCC2CCN(c3ncc(C(=O)NO)cn3)CC2)c2ccccc21 [quisinostat]
Outline: as §1

tipifarnib = compound: Cn1cncc1[C@@](N)(c1ccc(Cl)cc1)c1ccc2c(c1)c(-c1cccc(Cl)c1)cc(=O)n2C [tipifarnib]
Outline: as §1

[4] = compound: NC(=O)Nc1cc(-c2cccc(F)c2)sc1C(=O)N[C@H]1CCCNC1
Outline: as §1

[5] = compound: NC(=O)c1cnc(N[C@@H]2CCCC[C@@H]2N)nc1Nc1cccc(-n2nccn2)c1
Outline: as §1

[6] = compound: NC1(c2ccc(-c3nc4ccn5c(=O)[nH]nc5c4cc3-c3ccccc3)cc2)CCC1
Outline: as §1

Measured: log2 fold change

TPR (UniProt P12270)
inactive: nilotinib -0.009 | [1] 0.001 | dasatinib 0.019 | [2] 0.004 | [3] -0.004 | quisinostat 0.013 | tipifarnib 0.011 | [4] -0.018 | [5] -0.007 | [6] 0.006

TMEM214 (UniProt Q6NUQ4)
inactive: nilotinib -0.046 | [1] 0.018 | dasatinib -0.017 | [2] 0.004 | [3] -0.012 | quisinostat 0.014 | tipifarnib -0.013 | [4] 0.05 | [5] -0.002 | [6] 0.048

TMEM242 (UniProt Q9NWH2)
inactive: nilotinib -0.062 | [1] -0.101 | dasatinib -0.086 | [2] 0.171 | [3] -0.015 | quisinostat 0.152 | tipifarnib 0.004 | [4] -0.004

Two records picked at random from the list so far, as already listed:
TMEM242 (UniProt Q9NWH2)
inactive: nilotinib -0.062 | [1] -0.101 | dasatinib -0.086 | [2] 0.171 | [3] -0.015 | quisinostat 0.152 | tipifarnib 0.004 | [4] -0.004

TPR (UniProt P12270)
inactive: nilotinib -0.009 | [1] 0.001 | dasatinib 0.019 | [2] 0.004 | [3] -0.004 | quisinostat 0.013 | tipifarnib 0.011 | [4] -0.018 | [5] -0.007 | [6] 0.006

(continued)

TMEM223 (UniProt A0PJW6)
inactive: nilotinib 0.015 | [1] -0.148 | dasatinib -0.005 | [2] -0.04 | [3] 0.058 | quisinostat 0.06 | tipifarnib 0.037 | [4] -0.084 | [5] 0 | [6] 0.046

TOP1 (UniProt P11387)
inactive: nilotinib -0.005 | [1] 0.01 | dasatinib 0.017 | [2] 0.008 | [3] 0.013 | quisinostat 0.01 | tipifarnib 0.017 | [4] 0.029 | [5] -0.003 | [6] -0.014

TMF1 isoform 2 (UniProt P82094)
inactive: nilotinib -0.073 | [1] -0.008 | dasatinib 0.005 | [2] -0.035 | [3] -0.001 | quisinostat -0.008 | tipifarnib -0.064 | [4] -0.038 | [5] -0.011 | [6] -0.044

TMEM189-UBE2V1 (UniProt I3L0A0)
inactive: nilotinib 0.046 | [1] -0.002 | dasatinib -0.009 | [2] 0.035 | [3] 0.066 | quisinostat -0.032 | tipifarnib -0.024 | [4] -0.043 | [5] -0.037 | [6] -0.042

TNPO2 (UniProt O14787)
inactive: nilotinib -0.002 | [1] 0.02 | dasatinib -0.016 | [2] -0.01 | [3] -0.005 | quisinostat -0.002 | tipifarnib 0.004 | [4] -0.008 | [5] -0.002 | [6] -0.026

TMEM62 (UniProt Q0P6H9)
inactive: nilotinib 0.101 | [1] -0.01 | dasatinib 0.035 | [2] -0.003 | [3] -0.063 | quisinostat 0.024 | tipifarnib -0.05 | [4] 0.019 | [5] 0.121 | [6] -0.049

TOP3B (UniProt O95985)
inactive: nilotinib 0.027 | [1] 0.019 | dasatinib 0.002 | [2] 0.003 | [3] -0.016 | quisinostat 0.004 | tipifarnib 0.007 | [4] -0.016 | [5] -0.021 | [6] 0.021

TOM1 isoform 2 (UniProt O60784)
inactive: nilotinib -0.018 | [1] 0.035 | dasatinib -0.002 | [2] -0.003 | [3] -0.047 | quisinostat -0.087 | tipifarnib -0.053 | [4] 0.003 | [5] 0.045 | [6] -0.025

TOMM5 (UniProt Q8N4H5)
inactive: nilotinib 0.045 | [1] 0.014 | dasatinib 0.095 | [2] 0.409 | [3] 0.025 | quisinostat 0.034 | tipifarnib -0.046 | [4] -0.016 | [5] 0.022 | [6] 0.011

TOP3A (UniProt Q13472)
inactive: nilotinib -0.023 | [1] 0.018 | dasatinib 0 | [2] -0.02 | [3] -0.008 | quisinostat 0.022 | tipifarnib 0.06 | [4] -0.018 | [5] -0.041 | [6] 0.096

TNFRSF8 (UniProt P28908)
inactive: nilotinib -0.01 | [1] 0.011 | dasatinib 0.046 | [2] -0.024 | [3] 0.01 | quisinostat -0.001 | tipifarnib 0.034 | [4] -0.026 | [5] -0.027 | [6] 0.002

TNFAIP8 isoform 4 (UniProt O95379)
inactive: nilotinib -0.075 | [1] 0.033 | dasatinib 0.018 | [2] 0.021 | [3] 0.002 | quisinostat 0.032 | tipifarnib 0.043 | [4] -0.032 | [5] 0.059 | [6] 0.006

TMOD2 (UniProt Q9NZR1)
inactive: nilotinib -0.019 | [1] 0.022 | dasatinib -0.043 | [2] 0.035 | [3] 0.013 | quisinostat -0.005 | tipifarnib -0.048 | [4] -0.003 | [5] 0 | [6] 0.019

TMEM38B (UniProt Q9NVV0)
inactive: nilotinib -0.027 | [1] 0.026 | dasatinib 0.047 | [2] 0.027 | [3] -0.088 | quisinostat -0.016 | tipifarnib -0.037 | [4] 0.009 | [5] -0.028 | [6] -0.106

TPMT (UniProt P51580)
inactive: nilotinib 0.015 | [1] 0.025 | dasatinib 0.018 | [2] -0.015 | [3] 0.007 | quisinostat 0.088 | tipifarnib 0.029 | [4] -0.017 | [5] -0.015 | [6] 0.046

TP53I3 (UniProt Q53FA7)
inactive: nilotinib 0 | [1] -0.042 | dasatinib 0.089 | [2] -0.013 | [3] -0.017 | quisinostat -0.007 | tipifarnib 0.03 | [4] 0.031 | [5] -0.002 | [6] -0.006

TMX2 (UniProt Q9Y320)
inactive: nilotinib 0.005 | [1] 0.015 | dasatinib -0.041 | [2] -0.015 | [3] 0.026 | quisinostat 0.063 | tipifarnib 0.001 | [4] -0.041 | [5] -0.045 | [6] -0.001

TOM1L2 (UniProt Q6ZVM7)
inactive: nilotinib -0.113 | [1] -0.023 | dasatinib 0.067 | [2] 0.221 | [3] 0.108 | quisinostat -0.01 | tipifarnib 0.027 | [4] 0.058 | [5] 0.053 | [6] -0.081

TOR1AIP2 (UniProt Q9H496)
inactive: nilotinib 0.074 | [1] -0.029 | dasatinib 0.24 | [2] 0.154 | [3] 0.352 | quisinostat -0.024 | tipifarnib -0.112 | [4] 0.037 | [5] 0.062 | [6] -0.106

TMPO (UniProt P42167)
inactive: nilotinib -0.033 | [1] -0.003 | dasatinib 0.008 | [2] -0.042 | [3] -0.016 | quisinostat 0.061 | tipifarnib -0.034 | [4] 0.009 | [5] -0.011 | [6] 0.007

TPP1 (UniProt O14773)
inactive: nilotinib -0.017 | [1] 0.007 | dasatinib -0.014 | [2] -0.003 | [3] 0.012 | quisinostat -0.088 | tipifarnib -0.018 | [4] 0.036 | [5] 0.006 | [6] 0.008

TOR1AIP2 (UniProt Q8NFQ8)
inactive: nilotinib -0.104 | [1] 0.007 | dasatinib -0.017 | [2] -0.012 | [3] 0.024 | quisinostat 0.103 | tipifarnib 0.026 | [4] -0.009 | [5] 0.016 | [6] 0.025

TPP2 (UniProt P29144)
inactive: nilotinib 0.013 | [1] -0.005 | dasatinib -0.005 | [2] -0.02 | [3] 0.019 | quisinostat 0.01 | tipifarnib 0.006 | [4] 0.013 | [5] 0 | [6] 0.003

TMEM9B (UniProt Q9NQ34)
inactive: nilotinib 0.069 | [1] -0.119 | dasatinib -0.034 | [2] -0.027 | [3] 0.095 | quisinostat -0.007 | tipifarnib 0.012 | [4] -0.015 | [5] -0.028 | [6] 0.097

TPX2 (UniProt Q9ULW0)
inactive: nilotinib -0.001 | [1] 0.007 | dasatinib -0.002 | [2] 0.002 | [3] 0 | quisinostat -0.04 | tipifarnib -0.007 | [4] -0.021 | [5] -0.02 | [6] -0.004

TMEM97 (UniProt Q5BJF2)
inactive: nilotinib 0.098 | [1] 0.053 | dasatinib 0.018 | [2] 0.124 | [3] -0.005 | quisinostat 0.046 | tipifarnib 0.057 | [4] 0.011 | [5] -0.034 | [6] 0.023

TRA2B (UniProt P62995)
inactive: nilotinib -0.04 | [1] -0.026 | dasatinib 0.027 | [2] 0.027 | [3] -0.052 | quisinostat -0.149 | tipifarnib -0.024 | [4] 0.007 | [5] 0.012 | [6] -0.001
